Measurements: PubChem BioAssay AID194 (DTP/NCI, 2004)
The list does not hold the whole screen: it is rich in T/C values a quarter to a half above the control, in often repeated tests (any T/C) and in doses without a T/C. Further doses and runs are listed elsewhere. T/C is the treated group as % of the vehicle group. Some doses have a count of surviving animals in place of a T/C: the source holds a T/C of zero for them, seemingly a mark for toxic or unscored doses. Some doses without a T/C left all or most animals alive at the check, yet need not have been tolerated: survival well below the control is almost never listed, so the zero probably covers shortened survival too. Survivors were counted at the toxicity check, usually on the fifth day, unless a day is given; later deaths do not show. Schedules are NCI's codes, taken here to give the interval after Q, in days (D) or hours (H), and the number of doses after X. Some entries hold several experiments; the results are listed from low to high. For survival time, this PubChem deposit counts one and a half times the control or more as active, and values a quarter to a half above the control carry no call in these data; other NCI protocols may use other cut-offs.

Tested on: BDF1 mice, B16 melanoma s.c., survival/tumor T/C
Assay: NCI In Vivo Anticancer Drug Screen. Data for tumor model B16 Melanoma (subcutaneous) in B6D2F1 (BDF1) mice
Description: The antitumor activity of compounds was measured in mice bearing transplantable tumors. Survival or tumor size were measured and the results are expressed as the measurement made in the treated group (T) divided by the measurement made in the vehicle treated control group (C). The tumor model used in this assay is B16 Melanoma (subcutaneous) in B6D2F1 (BDF1) mice

[1] = T/C endpoint: median survival time, dose: 25.0 mg/kg/injection, schedule: Q01DX009 (ip), vehicle: Klucel (hydroxypropylcellulose) (HPC), higher T/C = longer survival
[2] = T/C endpoint: median survival time, dose: 50.0 mg/kg/injection, schedule: Q01DX009 (ip), vehicle: Klucel (hydroxypropylcellulose) (HPC), higher T/C = longer survival
[3] = T/C endpoint: median survival time, dose: 0.25 mg/kg/injection, schedule: Q01DX009 (ip), vehicle: saline, higher T/C = longer survival
[4] = T/C endpoint: median survival time, dose: 0.5 mg/kg/injection, schedule: Q01DX009 (ip), vehicle: saline, higher T/C = longer survival

For N=[N+]=CC(=O)CCC(NC(=O)C(CCC(=O)C=[N+]=N)NC(=O)CCC(N)C(=O)O)C(=O)O (stereo unspecified), the survivor count (T/C endpoint: median survival time, dose: 0.2 mg/kg/injection, schedule: Q01DX009 (ip), vehicle: saline, higher T/C = longer survival) was 10 of 10, the survivor count (T/C endpoint: median survival time, dose: 0.4 mg/kg/injection, schedule: Q01DX009 (ip), vehicle: saline, higher T/C = longer survival) was 10 of 10 and the survivor count (T/C endpoint: median survival time, dose: 0.8 mg/kg/injection, schedule: Q01DX009 (ip), vehicle: saline, higher T/C = longer survival) was 10 of 10. For the same molecule, the survivor count (T/C endpoint: median survival time, dose: 1.6 mg/kg/injection, schedule: Q01DX009 (ip), vehicle: saline, higher T/C = longer survival) was 9 of 10, the survivor count (T/C endpoint: median survival time, dose: 3.2 mg/kg/injection, schedule: Q01DX009 (ip), vehicle: saline, higher T/C = longer survival) was 10 of 10 and the survivor count (T/C endpoint: median survival time, dose: 6.4 mg/kg/injection, schedule: Q01DX009 (ip), vehicle: saline, higher T/C = longer survival) was 8 of 10. For the same molecule, the survivor count (T/C endpoint: median tumor weight (est.), dose: 0.4 mg/kg/injection, schedule: Q01DX009 (ip), vehicle: saline, higher T/C = larger tumour) was 2 of 6.
S=c1nc[nH]c2nc[nH]c12 was tested, and the survivor count (T/C endpoint: median survival time, dose: 12.5 mg/kg/injection, schedule: Q01DX009 (ip), vehicle: Klucel (hydroxypropylcellulose) (HPC), higher T/C = longer survival) was 5 of 6, the T/C [1] was 114, 128, 147, 169 % of control and the survivor count [1] was 5 of 6 and 6 of 6. For the same molecule, the T/C [2] was 98, 110, 114 % of control, the survivor count [2] was 6 of 6 and the survivor count (T/C endpoint: median survival time, dose: 100.0 mg/kg/injection, schedule: Q01DX009 (ip), vehicle: Klucel (hydroxypropylcellulose) (HPC), higher T/C = longer survival) was 6 of 6. For the same molecule, the survivor count (T/C endpoint: median survival time, dose: 200.0 mg/kg/injection, schedule: Q01DX009 (ip), vehicle: Klucel (hydroxypropylcellulose) (HPC), higher T/C = longer survival) was 6 of 6, the survivor count (T/C endpoint: median survival time, dose: 200.0 mg/kg/injection, schedule: Q01DX009 (ip), vehicle: saline with Tween-80, higher T/C = longer survival) was 6 of 6 and the survivor count (T/C endpoint: median tumor weight (est.), dose: 100.0 mg/kg/injection, schedule: Q01DX009 (ip), vehicle: Klucel (hydroxypropylcellulose) (HPC), higher T/C = larger tumour) was 3 of 6. For the same molecule, the survivor count (T/C endpoint: median tumor weight (est.), dose: 100.0 mg/kg/injection, schedule: Q01DX009 (ip), vehicle: saline with Tween-80, higher T/C = larger tumour) was 2 of 6.
COc1cccc2c1C(=O)c1c(O)c3c(c(O)c1C2=O)C[C@@](O)(/C(C)=N/NC(=O)c1ccccc1)C[C@@H]3OC1CC(N)C(O)C(C)O1 (stereo partly specified) was tested, and the T/C (T/C endpoint: median survival time, dose: 23.0 mg/kg/injection, schedule: Q04DX003 (ip), vehicle: saline, higher T/C = longer survival) was 141 % of control, the survivor count (T/C endpoint: median survival time, dose: 35.0 mg/kg/injection, schedule: Q04DX003 (ip), vehicle: saline, higher T/C = longer survival) was 9 of 10 and the T/C (T/C endpoint: median survival time, dose: 40.0 mg/kg/injection, schedule: Q01DX001 (ip), vehicle: saline, higher T/C = longer survival) was 125 % of control. For the same molecule, the survivor count (T/C endpoint: median survival time, dose: 60.0 mg/kg/injection, schedule: Q01DX001 (ip), vehicle: saline, higher T/C = longer survival) was 6 of 10.
With CN(N=O)C(=O)N[C@@H](C=O)[C@@H](O)[C@H](O)[C@H](O)CO the survivor count (T/C endpoint: median survival time, dose: 160.0 mg/kg/injection, schedule: Q01DX009 (ip), vehicle: other, higher T/C = longer survival) was 10 of 10.
In the case of CC1OC(=O)C(C(C)C)NC(=O)C(C(C)C)OC(=O)C(C(C)C)NC(=O)C(C)OC(=O)C(C(C)C)NC(=O)C(C(C)C)OC(=O)C(C(C)C)NC(=O)C(C)OC(=O)C(C(C)C)NC(=O)C(C(C)C)OC(=O)C(C(C)C)NC1=O (stereo unspecified), the survivor count (T/C endpoint: median survival time, dose: 20.0 mg/kg/injection, schedule: Q01DX001 (ip), vehicle: saline with Tween-80, higher T/C = longer survival) is reported as 10 of 10.
In the case of COc1cc(NS(C)(=O)=O)ccc1Nc1c2ccccc2nc2ccccc12, the survivor count (T/C endpoint: median survival time, dose: 4.0 mg/kg/injection, schedule: Q01DX009 (ip), vehicle: other, higher T/C = longer survival) is reported as 10 of 10 and the survivor count (T/C endpoint: median survival time, dose: 8.0 mg/kg/injection, schedule: Q01DX009 (ip), vehicle: other, higher T/C = longer survival) is reported as 9 of 10.
In the case of CC[C@]1(O)C[C@H]2CN(CCc3c([nH]c4ccccc34)[C@@](C(=O)OC)(c3cc4c(cc3OC)N(C=O)[C@H]3[C@@](O)(C(=O)OC)[C@H](OC(C)=O)[C@]5(CC)C=CCN6CC[C@]43[C@@H]65)C2)C1, the T/C [3] is reported as 100, 114, 122, 126, 134 % of control, the survivor count [3] is reported as 6 of 6 and the T/C [4] is reported as 122 and 128 % of control. The survivor count [4] was 6 of 10, 9 of 10, 6 of 6, the survivor count (T/C endpoint: median survival time, dose: 1.0 mg/kg/injection, schedule: Q01DX009 (ip), vehicle: saline, higher T/C = longer survival) was 3 of 6, 5 of 10, 5 of 6, 6 of 6 and the survivor count (T/C endpoint: median survival time, dose: 2.0 mg/kg/injection, schedule: Q01DX009 (ip), vehicle: saline, higher T/C = longer survival) was 0 of 6, 4 of 6, 6 of 6.
